In PubChem BioAssay AID192 (DTP/NCI, 2004):
The list shows only some results of the screen, not a fair sample: its compounds were picked by chemical class. Other doses and runs of a compound may be missing. T/C: endpoint of the treated group in % of that of the vehicle group. For survival time, this PubChem deposit counts one and a half times the control or more as active, and values a quarter to a half above the control carry no call in these data; other NCI protocols may use other cut-offs. Some entries show no survivor count and are marked so; the dose need not have been tolerated. Schedules are NCI's codes, taken here to give the interval after Q, in days (D) or hours (H), and the number of doses after X. Some entries hold several experiments; their values stand side by side, smallest first. Some complexes appear as separate parts, the way the source draws them; their charges need not add up.

Test system: BDF1 mice, B16 melanoma ip, median survival T/C
Test: NCI In Vivo Anticancer Drug Screen. Data for tumor model B16 Melanoma (intraperitoneal) in B6D2F1 (BDF1) mice
Settings: T/C endpoint: median survival time, higher T/C = longer survival
Experimental: The antitumor activity of compounds was measured in mice bearing transplantable tumors. Survival or tumor size were measured and the results are expressed as the measurement made in the treated group (T) divided by the measurement made in the vehicle treated control group (C). The tumor model used in this assay is B16 Melanoma (intraperitoneal) in B6D2F1 (BDF1) mice

## CN(CCCl)CCCl
dose: 0.04 mg/kg/injection, schedule: Q01DX009 (ip), vehicle: saline
  T/C: 154 % of control [survivor count not shown]
dose: 0.06 mg/kg/injection, schedule: Q01DX009 (ip), vehicle: saline
  T/C: 140 % of control [survivor count not shown]
dose: 0.08 mg/kg/injection, schedule: Q01DX009 (ip), vehicle: saline
  T/C: 200 % of control [survivor count not shown]
dose: 0.1 mg/kg/injection, schedule: Q01DX009 (ip), vehicle: water
  T/C: 144 % of control [survivor count not shown]
dose: 0.12 mg/kg/injection, schedule: Q01DX005 (ip), vehicle: water
  T/C: 108 % of control [survivor count not shown]
dose: 0.12 mg/kg/injection, schedule: Q01DX009 (ip), vehicle: saline
  T/C: 162 % of control [survivor count not shown]
dose: 0.13 mg/kg/injection, schedule: Q01DX009 (ip), vehicle: saline
  T/C: 122 [survivor count not shown] and 128 % of control [survivor count not shown]
dose: 0.16 mg/kg/injection, schedule: Q01DX009 (ip), vehicle: saline
  T/C: 180 % of control [survivor count not shown]
dose: 0.25 mg/kg/injection, schedule: Q01DX005 (ip), vehicle: water
  T/C: 122 % of control [survivor count not shown]
dose: 0.25 mg/kg/injection, schedule: Q01DX009 (ip), vehicle: saline
  T/C: 126 [survivor count not shown], 135 [survivor count not shown], 189 % of control [survivor count not shown]
dose: 0.25 mg/kg/injection, schedule: Q01DX009 (ip), vehicle: water
  T/C: 172 % of control [survivor count not shown]
dose: 0.3 mg/kg/injection, schedule: Q01DX009 (ip), vehicle: water
  T/C: 180 % of control [survivor count not shown]
dose: 0.5 mg/kg/injection, schedule: Q01DX005 (ip), vehicle: water
  T/C: 116 % of control [survivor count not shown]
dose: 0.5 mg/kg/injection, schedule: Q01DX009 (ip), vehicle: saline
  T/C: 169 [survivor count not shown] and 170 % of control [survivor count not shown]
dose: 0.5 mg/kg/injection, schedule: Q01DX009 (ip), vehicle: water
  T/C: 209 % of control [survivor count not shown]
dose: 0.75 mg/kg/injection, schedule: Q01DX005 (ip), vehicle: water
  T/C: 138 % of control [survivor count not shown]
dose: 1.0 mg/kg/injection, schedule: Q01DX005 (ip), vehicle: water
  T/C: 125 % of control [survivor count not shown]
dose: 1.0 mg/kg/injection, schedule: Q01DX009 (ip), vehicle: saline
  T/C: 185 % of control [survivor count not shown]
dose: 2.5 micrograms/kg/injection, schedule: Q01DX009 (ip), vehicle: saline
  T/C: 123 % of control [survivor count not shown]
dose: 5.0 micrograms/kg/injection, schedule: Q01DX009 (ip), vehicle: saline
  T/C: 130 % of control [survivor count not shown]
dose: 10.0 micrograms/kg/injection, schedule: Q01DX009 (ip), vehicle: saline
  T/C: 111 % of control [survivor count not shown]
dose: 20.0 micrograms/kg/injection, schedule: Q01DX009 (ip), vehicle: saline
  T/C: 116 % of control [survivor count not shown]
dose: 30.0 micrograms/kg/injection, schedule: Q01DX009 (ip), vehicle: saline
  T/C: 175 % of control [survivor count not shown]
dose: 60.0 micrograms/kg/injection, schedule: Q01DX009 (ip), vehicle: saline
  T/C: 195 % of control [survivor count not shown]
dose: 63.0 micrograms/kg/injection, schedule: Q01DX009 (ip), vehicle: saline
  T/C: 157 % of control [survivor count not shown]
dose: 125.0 micrograms/kg/injection, schedule: Q01DX009 (ip), vehicle: saline
  T/C: 217 [survivor count not shown] and 227 % of control [survivor count not shown]
dose: 250.0 micrograms/kg/injection, schedule: Q01DX009 (ip), vehicle: saline
  T/C: 188 [survivor count not shown] and 222 % of control [survivor count not shown]
dose: 500.0 micrograms/kg/injection, schedule: Q01DX009 (ip), vehicle: saline
  T/C: 154 % of control [survivor count not shown]

## CN(CCCl)CCCl.O.O.O.[Cl][Ni+][Cl]
dose: 3.13 mg/kg/injection, schedule: Q01DX009 (ip), vehicle: saline
  T/C: 107 % of control [survivor count not shown]
dose: 6.25 mg/kg/injection, schedule: Q01DX009 (ip), vehicle: saline
  T/C: 107 % of control [survivor count not shown]
dose: 12.5 mg/kg/injection, schedule: Q01DX009 (ip), vehicle: saline
  T/C: 105 % of control [survivor count not shown]
dose: 25.0 mg/kg/injection, schedule: Q01DX009 (ip), vehicle: saline
  T/C: 125 % of control [survivor count not shown]
